Construct, isoform or probe ends are uncertain for at least one entry. Whether high values mean tight binding is not given here for every scale.

The chains behind the UniProt entries cited, without tags or fusion partners. Residues count along the entry.
UniProt Q94CL7, 222-358 L319N/I333N/L337N: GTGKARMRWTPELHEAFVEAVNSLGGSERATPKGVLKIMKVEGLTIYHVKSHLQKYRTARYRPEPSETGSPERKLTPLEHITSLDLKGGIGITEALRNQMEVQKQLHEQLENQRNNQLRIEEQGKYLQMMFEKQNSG

1 sequence from PMC7810988, “Inositol pyrophosphates promote the interaction of SPX domains with the coiled-coil motif of PHR transcription factors to regulate plant phosphate homeostasis” (Nature Communications, 2021) can be followed below.

This data set has as its target AtPHR1 MYB-CC Olig1 L319N,I333N,L337N (Arabidopsis thaliana) (UniProt Q94CL7). The experiment in a line: GCI. To be noted: 4 C, 300 mM NaCl; GCI at 4 C: AtPHR1 in 20 mM HEPES pH 7.5, 300 mM NaCl; OsPHR2 in 20 mM HEPES pH 7.9, 200 mM NaCl; recombinant protein; residues 222-358; protein details: His6 N-terminal, TEV-cleaved; label: 5'-biotin on strand 1.

As for “CAGAGAAAAAAGGATATTCTAATTAGAAACCTTAAGAATATTCTTTTTAATCCC (double strand) [pAtSPX1 biotin]”, the binding signal (fold reduced affinity vs wild type) was found to be 20.
